# Library screen at single concentrations

Sequences of proteins named here, by UniProt entry; tags and fusion partners are left off.
UniProt I6X8D2, whole entry: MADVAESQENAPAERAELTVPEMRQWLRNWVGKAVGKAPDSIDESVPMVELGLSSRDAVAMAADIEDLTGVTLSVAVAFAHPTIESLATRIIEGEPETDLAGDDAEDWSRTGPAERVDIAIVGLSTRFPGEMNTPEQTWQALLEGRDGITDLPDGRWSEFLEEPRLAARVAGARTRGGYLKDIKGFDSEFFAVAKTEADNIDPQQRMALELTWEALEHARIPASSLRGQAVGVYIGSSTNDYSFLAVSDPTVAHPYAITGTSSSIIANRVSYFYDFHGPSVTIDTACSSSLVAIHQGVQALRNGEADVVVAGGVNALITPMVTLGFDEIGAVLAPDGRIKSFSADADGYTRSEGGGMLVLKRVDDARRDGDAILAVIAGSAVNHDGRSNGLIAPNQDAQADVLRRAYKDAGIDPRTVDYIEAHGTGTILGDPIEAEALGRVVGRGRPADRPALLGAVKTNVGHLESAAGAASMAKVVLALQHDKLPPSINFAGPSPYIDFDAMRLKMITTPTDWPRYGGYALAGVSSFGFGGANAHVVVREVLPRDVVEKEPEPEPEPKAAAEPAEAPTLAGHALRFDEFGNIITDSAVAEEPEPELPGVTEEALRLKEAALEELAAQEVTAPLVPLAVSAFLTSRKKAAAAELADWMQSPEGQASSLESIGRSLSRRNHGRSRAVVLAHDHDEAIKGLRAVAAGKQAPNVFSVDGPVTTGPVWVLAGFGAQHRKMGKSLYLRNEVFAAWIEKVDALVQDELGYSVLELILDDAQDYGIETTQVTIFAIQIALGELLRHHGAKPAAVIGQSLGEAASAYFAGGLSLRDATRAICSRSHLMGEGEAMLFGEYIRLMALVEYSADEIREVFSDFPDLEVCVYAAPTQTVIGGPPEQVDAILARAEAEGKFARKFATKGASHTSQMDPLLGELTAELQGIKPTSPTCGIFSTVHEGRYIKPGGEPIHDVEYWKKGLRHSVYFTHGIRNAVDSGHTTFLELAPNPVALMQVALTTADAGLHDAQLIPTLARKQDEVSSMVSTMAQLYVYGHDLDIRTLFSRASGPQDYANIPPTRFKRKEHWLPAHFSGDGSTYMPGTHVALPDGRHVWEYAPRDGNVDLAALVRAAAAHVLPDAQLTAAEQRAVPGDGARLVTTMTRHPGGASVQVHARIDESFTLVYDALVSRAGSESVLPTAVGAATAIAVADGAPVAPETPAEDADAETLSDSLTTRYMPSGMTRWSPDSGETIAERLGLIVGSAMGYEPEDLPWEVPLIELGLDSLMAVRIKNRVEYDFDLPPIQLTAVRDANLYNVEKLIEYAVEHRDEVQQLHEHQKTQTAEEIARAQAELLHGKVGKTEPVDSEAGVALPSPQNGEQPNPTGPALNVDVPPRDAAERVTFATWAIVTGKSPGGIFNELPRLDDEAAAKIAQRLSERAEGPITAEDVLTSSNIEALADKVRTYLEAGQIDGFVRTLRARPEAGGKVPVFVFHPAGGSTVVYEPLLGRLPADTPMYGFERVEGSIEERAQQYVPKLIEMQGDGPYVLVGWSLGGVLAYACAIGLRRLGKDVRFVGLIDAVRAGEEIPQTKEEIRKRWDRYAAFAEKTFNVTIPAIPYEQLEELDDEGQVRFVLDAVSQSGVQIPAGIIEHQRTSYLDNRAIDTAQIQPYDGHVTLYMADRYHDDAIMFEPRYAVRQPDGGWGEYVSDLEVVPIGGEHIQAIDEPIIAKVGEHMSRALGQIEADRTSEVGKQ
UniProt P9WNZ1, whole entry: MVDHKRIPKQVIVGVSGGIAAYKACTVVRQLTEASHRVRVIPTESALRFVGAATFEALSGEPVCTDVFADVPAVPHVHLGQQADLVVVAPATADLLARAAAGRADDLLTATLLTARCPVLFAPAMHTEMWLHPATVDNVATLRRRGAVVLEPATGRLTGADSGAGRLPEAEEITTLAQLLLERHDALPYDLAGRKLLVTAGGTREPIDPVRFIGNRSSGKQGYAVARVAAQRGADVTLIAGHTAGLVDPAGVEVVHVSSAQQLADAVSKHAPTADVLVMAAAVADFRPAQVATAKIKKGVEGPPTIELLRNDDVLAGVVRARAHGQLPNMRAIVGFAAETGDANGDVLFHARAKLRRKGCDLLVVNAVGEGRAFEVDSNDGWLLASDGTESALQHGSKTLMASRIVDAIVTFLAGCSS
UniProt P9WFT3, whole entry: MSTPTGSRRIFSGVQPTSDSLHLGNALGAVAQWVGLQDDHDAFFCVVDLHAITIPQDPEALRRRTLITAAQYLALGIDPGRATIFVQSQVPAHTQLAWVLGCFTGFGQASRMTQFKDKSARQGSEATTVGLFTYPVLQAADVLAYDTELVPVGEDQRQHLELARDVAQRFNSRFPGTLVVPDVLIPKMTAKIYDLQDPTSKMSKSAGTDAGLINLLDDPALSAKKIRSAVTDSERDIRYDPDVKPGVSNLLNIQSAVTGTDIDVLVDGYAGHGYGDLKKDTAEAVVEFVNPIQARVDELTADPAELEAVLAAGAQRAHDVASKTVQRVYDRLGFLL

A: 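Enzyme assay of the thioesterase domain of polyketide synthase 13; the read-out is not stated. Target: Polyketide synthase Pks13, Mycobacterium tuberculosis (UniProt I6X8D2). Compounds at 30 µM. Higher reads as stronger inhibition (inferred from which compounds were picked for retests). Size under these conditions: about 67,000 compounds, about 300 of them at 50% or above in at least one test.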
B: 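Enzyme assay of CoaBC with a phosphate dye (Biomol Green) read at 650 nm. Target: Coenzyme A biosynthesis protein CoaBC, Mycobacterium tuberculosis (UniProt P9WNZ1). Compounds at 30 µM. Direction is inferred from only a few compounds that gave an IC50; most scored high, so higher reads as stronger inhibition. Most strong results did not repeat in a second test. Size under these conditions: about 67,000 compounds, about 40 of them at 50% or above in at least one test.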
C: 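Cell assay of Leishmania donovani living inside macrophages; the read-out is not stated. Tested at 30 µM. The record gives no direction; compounds that gave an IC50 in retests scored well above the rest, so higher reads as stronger inhibition. Size under these conditions: about 69,000 compounds, about 1,000 of them at 50% or above in at least one test.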
D: 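Enzyme assay of tryptophanyl-tRNA synthetase; the read-out is not stated. Target: Tryptophan-tRNA ligase, Mycobacterium tuberculosis (UniProt P9WFT3). Concentration: 10 µM. Direction is not recorded; retested compounds ran higher, which suggests that high means inhibition. Of about 65,000 compounds tested this way, about 64 (0.098%) reached 50% or more in at least one test.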

Results are given as percent effect. The record does not define 0% and 100%; most values in the screen are far below 50% and negative numbers occur (in some assays of this library far below -100). The compounds are a random part of those screened. Two or more numbers in one place are separate tests of the same structure; such repeats can differ widely. A dash means the value is not listed here; it may have been measured.

| # | compound | A | B | C | D |
|---|---|---|---|---|---|
| 1 | `[H][C@@]12C[C@H](C(=O)Nc3cccnc3)[C@@]([H])(CN(S(=O)(=O)C3CC3)C1)O2` | - | - | 1.172 | - |
| 2 | `CC1CN(c2cc(CNCc3cccc4c3OCCO4)ccn2)CCO1` (stereo not shown) | -27.28 | 1.775 | 14.88 | -1.385 |
| 3 | `CCn1ncc(S(=O)(=O)N[C@@H]2CC[C@@H](n3ccnc3C)[C@@H]2O)c1C` | 0.004443 | 2.871 | 23.92 | -4.427 |
| 4 | `O=C(NC1CCC1)c1cccc(S(=O)(=O)NCc2nc(C3CC3)no2)c1` | -5.477 | 12.14 | -14.58 | 1.098 |
| 5 | `C=Cn1ncc(CN2C[C@@H]3CCCN3C[C@@H]2Cc2ccccc2)c1C` | -44.57 | 0.5556 | - | 0.2508 |
| 6 | `Cc1ccc(OCC(O)COC2CCOCC2)c(Br)c1` (stereo not shown) | -34.12 | 0.3802 | 19.36 | -0.1792 |
| 7 | `CCN(CC)C1CCN(c2nccc(C3CCCC3)n2)C1` (stereo not shown) | -20.76 | 3.14 | -19.09 | -10.18 |
| 8 | `CC1N(C)C(=O)COC12CCN(Cc1ccsc1)CC2.O=C(O)C(F)(F)F` (stereo not shown) | - | - | -11.43 | - |
| 9 | `CCc1c(O)n(C(C)CC)c(SCC(=O)c2ccccc2)nc1=O` (stereo not shown) | 4.251 | 0.6135 | -13.27 | - |
| 10 | `CC(NC(=O)NC1CCN(Cc2ccccn2)CC1)c1nncn1C` (stereo not shown) | -18.16 | -3.548 | 20.75 | -0.6399 |
| 11 | `COc1ccc(S(=O)(=O)N2CCC(S(C)(=O)=O)CC2)cc1C` | 12.69 | 1.901 | 8.678 | -2.977 |
| 12 | `Cn1nc(CNC(=O)C2COc3ccccc3O2)cc1C1CC1` (stereo not shown) | -11.84 | -0.6337 | -4.984 | 1.874 |
| 13 | `Cn1nccc1C(=O)N1CC[C@]2(C[C@H](OCc3ccccn3)CO2)C1` | -7.911 | 2 | - | -4.066 |
| 14 | `CC(Cn1cccn1)C(=O)N1CCC(NS(C)(=O)=O)CC1` (stereo not shown) | -21.69 | 2.564 | -4.392 | -3.64 |
| 15 | `CC(=O)N1CCC(c2cccc(NC3CCOCC3)n2)CC1` | -0.3438 | 0.2427 | 24.1 | 5.144 |
| 16 | `CCN(C)S(=O)(=O)NCC(O)c1cc2ccccc2s1` (stereo not shown) | - | 3.259 | -5.445 | -0.09911 |
| 17 | `Cc1noc(-c2cccnc2N(C)Cc2cc(C)on2)n1` | -6.206 | 0.4032 | 15.6 | -3.511 |
| 18 | `COc1cccc(C(O)CN2CCN(C(=O)CCC(C)C)CC2)c1` (stereo not shown) | -4.443 | -3.6 | -26.89 | 11.18 |
| 19 | `c1coc(CN2CCC3(CC2)COCCN(CCN2CCCC2)C3)c1` | -29.85 | - | - | -1.453 |
| 20 | `Cn1nc(CNC(=O)NCc2ccc(Cl)cc2)c2c1CCOC2` | -12.43 | 0.3802 | -5.937 | -1.213 |
| 21 | `COc1ccc(NC(=O)Nc2cnc(N3CCN(C)CC3)nc2)cc1Cl` | -0.3347 | 1.805 | -4.316 | 4.109 |
| 22 | `CCN(C(=O)CCc1ccc2c(c1)OCO2)C1CC(=O)NC1=O` (stereo not shown) | -14.63 | 10.19 | -19.88 | -0.3137 |
| 23 | `CN(C)c1nccc(C2CCN(C3CCCCC3O)CC2)n1` (stereo not shown) | -8.286 | 18.88 | -1.054 | 15.69 |
| 24 | `O=C(NCc1cccs1)c1nc2c(o1)CN(c1ncccn1)C2` | -8.853 | - | 27.75 | -4.207 |
| 25 | `COCCO[C@H]1CCN(Cc2cccs2)[C@H]1Cc1cccnc1` | -9.126 | -9.251 | - | -0.1676 |
| 26 | `O=C(CN1C(=O)CCC1=O)NCc1cc(C2CC2)n(C2CCCC2)n1` | 4.415 | 1.903 | 2.638 & 15.17 | -5.395 |
| 27 | `CC(C)=CCN1C(=O)[C@H]2CC[C@@H]1CN(c1ncccc1C(N)=O)C2` | 1.628 | 2.036 | - | 5.686 |
| 28 | `Cl.NC1(c2nc(C(F)(F)F)cc(=O)[nH]2)CCCC1` | - | - | 10.36 | - |
| 29 | `CCOC(=O)CCCN1CCCC(C(=O)Nc2ccc(Cl)cn2)C1` (stereo not shown) | -26.08 | -4.202 | 24.03 | 1.029 |
| 30 | `CC(C)O[C@@H]1CC[C@H]2[C@H]1OCCN2C(=O)c1nn(C)c2ccccc12` | -7.726 | 2.195 | - | - |
| 31 | `O=C(O)C(F)(F)F.O=C(O)C(F)(F)F.[H][C@]12CCN(C(=O)c3ccc4ncccc4c3)C[C@@]1([H])OCCN(C)C2` | - | - | 11.22 | - |
| 32 | `CCNC(c1ccc(OC)cc1)c1cccnc1` (stereo not shown) | -19.12 | 4.7 | 36.94 | 1.267 |
| 33 | `COc1ccccc1C1(CNc2ncc(S(N)(=O)=O)s2)CC1` | -24.1 | 2.784 | -34.24 | -3.665 |
| 34 | `CC(Cn1cccn1)Nc1cnc2ccccc2n1` (stereo not shown) | -9.545 | 3.353 | 12.1 | -0.3589 |
| 35 | `[H][C@@]12CCN(Cc3cc(C)on3)C[C@@]1([H])O[C@H](c1nccs1)C2` | - | - | 12.1 | - |
| 36 | `O=C(NC[C@H]1C[C@@H]2CN(C(=O)c3ccco3)C[C@@H]2O1)c1ccsc1` | -17.37 | 1.98 | - | - |
| 37 | `O=C1NC2(Cc3ccccc31)CN(CC1CCNCC1)C2` | -57.95 | 5.789 | 1.946 | 13.57 |
| 38 | `CC(=O)N1CCC(n2nccc2-c2cnc(N(C)CCO)nc2)CC1` | 17.85 | 5.663 | 13.28 & 17.99 | - |
| 39 | `CCn1ncc2c1CCCC2NCc1csc(C(C)C)n1` (stereo not shown) | -37.63 | - | -6.158 | 7.43 |
| 40 | `Cc1cc(CN(C)Cc2csc(-c3cccs3)n2)n[nH]1` | -19.66 | 0.7299 | 13.94 | 3.994 |
| 41 | `O=C(NCc1ccccc1Cl)c1[nH]nc2c1CS(=O)(=O)CC2` | -6.593 | -10.75 | 32.01 | 4.666 |
| 42 | `Cc1ccc(-c2cc(CN3CCc4cnc(C)nc4C3)on2)cc1` | -33.26 | -10.71 | 27.17 | -0.516 |
| 43 | `Cc1ccc(C(=O)N2CCC3(CC2)CCN(CCN(C)C)C3=O)cn1` | -0.9659 | 0.4837 | - | 1.145 |
| 44 | `COCCN1CCc2ncnc(-c3ccccc3)c2CC1` | 2.73 | 0.2475 | - | - |
| 45 | `Cc1nc(N2CCCCC2)ncc1-c1cc(=O)[nH]c(N2CCCC2)n1` | -44.5 | 0.2141 | -0.2162 | -4.839 |
| 46 | `COCc1n[nH]c2c1CN(Cc1ccccn1)C2` | -8.805 | 1.232 | - | -0.8994 |

Once more, the final 3:

compound	A	B	C	D
COCCN1CCc2ncnc(-c3ccccc3)c2CC1	2.73	0.2475	-	-
Cc1nc(N2CCCCC2)ncc1-c1cc(=O)[nH]c(N2CCCC2)n1	-44.5	0.2141	-0.2162	-4.839
COCc1n[nH]c2c1CN(Cc1ccccn1)C2	-8.805	1.232	-	-0.8994

Source: ChEMBL document CHEMBL3988442, “University of Dundee, Small-Polar-MMV Screening Library” (2021).